For assay [1], the target named is T1, GST-C179WT (Human CIZ1) (human) (UniProt Q9ULV3).
T1 sequence: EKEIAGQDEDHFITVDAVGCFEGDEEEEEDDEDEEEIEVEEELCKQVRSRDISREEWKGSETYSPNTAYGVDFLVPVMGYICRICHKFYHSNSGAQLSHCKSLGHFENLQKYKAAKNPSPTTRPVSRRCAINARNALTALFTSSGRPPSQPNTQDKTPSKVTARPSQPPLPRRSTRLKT
The experiment in a line: affinity purification with mass spectrometry; GST-CIZ1 fragment on Glutathione Sepharose 4B beads (prepared with Benzonase and RNase); HeLa nuclear extract (400 and 800 mM NaCl fractions pooled, diluted to 135 mM NaCl), 2 h at 4°C, five washes in isotonic buffer; on-bead trypsin digest, label-free MS; partner: >=2-fold over GST control, q <= 0.05; studies A, B (with C179Δtail) and C (with C179DDD), n = 4 replicates each; only the target purified.

Assay [2] deals with GST-C179Δtail (Human CIZ1) (human) (UniProt Q9ULV3). Described as above.

The values below come from PMC12862363, “AURKB-driven dissolution of CIZ1–RNA assemblies from the inactive X chromosome in mitosis” (Nucleic Acids Research, 2026).

These are yes or no findings as the source states them, for the method shown. In cells and extracts the contact can be indirect. Here binding means that the protein was enriched with, or labelled near, the bait; the list need not be complete. For some assays here: Sequences can lack the tags named with a protein.

B1: SRSF2 (protein, UniProt Q01130 1-221)
chain: MSYGRPPPDVEGMTSLKVDNLTYRTSPDTLRRVFEKYGRVGDVYIPRDRYTKESRGFAFVRFHDKRDAEDAMDAMDGAVLDGRELRVQMARYGRPPDSHHSRRGPPPRRYGGGGYGRRSRSPRRRRRSRSRSRSRSRSRSRSRYSRSKSRSRTRSRSRSTSKSRSARRSKSKSSSVSRSRSRSRSRSRSRSPPPVSKRESKSRSRSKSPPKSPEEEGAVSS
Take B1: the binding result in assay [1] and in assay [2] was “binds” throughout.
